Laboratory results from publication PMC4046919.
These are yes or no findings as the source states them, for the method shown. Binding seen in cells or lysates may run through a third protein. Some entries that bind do so weakly or less than the wild type. Blank lines part the entries; values can stand above or below the molecule they belong to.

Amino acid sequences for entries named in this document (tags omitted). A change or cut given only in a name is not applied to a line headed by its entry. Chains listed by the source or under a name are the forms on record and can include a tag or linker.
UniProt Q9WV60: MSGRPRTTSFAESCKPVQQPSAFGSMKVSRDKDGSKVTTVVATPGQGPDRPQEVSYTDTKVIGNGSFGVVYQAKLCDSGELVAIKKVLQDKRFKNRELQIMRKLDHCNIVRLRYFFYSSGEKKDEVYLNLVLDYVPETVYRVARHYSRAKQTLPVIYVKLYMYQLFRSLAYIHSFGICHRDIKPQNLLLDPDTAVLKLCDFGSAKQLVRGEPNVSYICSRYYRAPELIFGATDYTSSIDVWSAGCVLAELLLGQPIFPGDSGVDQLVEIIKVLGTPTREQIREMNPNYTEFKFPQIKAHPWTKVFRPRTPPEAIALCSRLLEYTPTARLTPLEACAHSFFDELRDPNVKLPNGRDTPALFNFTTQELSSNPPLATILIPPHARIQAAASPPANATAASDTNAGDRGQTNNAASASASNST
nuclear myosin 1c (NM1), endogenous, mouse (Q9WTI7-3, form named): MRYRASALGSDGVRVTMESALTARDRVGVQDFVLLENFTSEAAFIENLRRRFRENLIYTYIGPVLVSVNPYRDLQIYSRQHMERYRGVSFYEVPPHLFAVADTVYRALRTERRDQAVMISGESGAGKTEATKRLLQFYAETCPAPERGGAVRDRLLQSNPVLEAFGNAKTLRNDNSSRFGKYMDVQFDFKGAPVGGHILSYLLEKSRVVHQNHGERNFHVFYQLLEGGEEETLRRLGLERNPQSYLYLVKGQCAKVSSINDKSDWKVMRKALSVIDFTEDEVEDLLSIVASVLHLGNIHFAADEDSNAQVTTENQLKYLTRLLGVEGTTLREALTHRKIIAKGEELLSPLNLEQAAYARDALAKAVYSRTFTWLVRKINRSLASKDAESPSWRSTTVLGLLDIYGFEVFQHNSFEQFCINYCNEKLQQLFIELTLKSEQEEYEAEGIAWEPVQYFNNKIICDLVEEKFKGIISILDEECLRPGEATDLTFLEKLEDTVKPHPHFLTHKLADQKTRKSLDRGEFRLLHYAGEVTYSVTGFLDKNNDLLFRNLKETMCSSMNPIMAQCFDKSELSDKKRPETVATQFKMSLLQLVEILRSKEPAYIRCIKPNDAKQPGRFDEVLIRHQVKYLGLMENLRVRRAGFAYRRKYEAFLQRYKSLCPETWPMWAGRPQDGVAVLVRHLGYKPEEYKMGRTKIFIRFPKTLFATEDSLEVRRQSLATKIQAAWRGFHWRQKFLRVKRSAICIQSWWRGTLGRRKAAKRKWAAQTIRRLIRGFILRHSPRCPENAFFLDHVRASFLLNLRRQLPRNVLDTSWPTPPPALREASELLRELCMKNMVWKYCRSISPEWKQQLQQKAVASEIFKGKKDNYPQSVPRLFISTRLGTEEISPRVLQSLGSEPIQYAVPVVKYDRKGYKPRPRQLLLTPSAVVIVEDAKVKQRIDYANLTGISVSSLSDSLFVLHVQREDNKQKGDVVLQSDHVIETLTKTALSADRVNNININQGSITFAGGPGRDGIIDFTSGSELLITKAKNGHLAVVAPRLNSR
UniProt Q91ZW3: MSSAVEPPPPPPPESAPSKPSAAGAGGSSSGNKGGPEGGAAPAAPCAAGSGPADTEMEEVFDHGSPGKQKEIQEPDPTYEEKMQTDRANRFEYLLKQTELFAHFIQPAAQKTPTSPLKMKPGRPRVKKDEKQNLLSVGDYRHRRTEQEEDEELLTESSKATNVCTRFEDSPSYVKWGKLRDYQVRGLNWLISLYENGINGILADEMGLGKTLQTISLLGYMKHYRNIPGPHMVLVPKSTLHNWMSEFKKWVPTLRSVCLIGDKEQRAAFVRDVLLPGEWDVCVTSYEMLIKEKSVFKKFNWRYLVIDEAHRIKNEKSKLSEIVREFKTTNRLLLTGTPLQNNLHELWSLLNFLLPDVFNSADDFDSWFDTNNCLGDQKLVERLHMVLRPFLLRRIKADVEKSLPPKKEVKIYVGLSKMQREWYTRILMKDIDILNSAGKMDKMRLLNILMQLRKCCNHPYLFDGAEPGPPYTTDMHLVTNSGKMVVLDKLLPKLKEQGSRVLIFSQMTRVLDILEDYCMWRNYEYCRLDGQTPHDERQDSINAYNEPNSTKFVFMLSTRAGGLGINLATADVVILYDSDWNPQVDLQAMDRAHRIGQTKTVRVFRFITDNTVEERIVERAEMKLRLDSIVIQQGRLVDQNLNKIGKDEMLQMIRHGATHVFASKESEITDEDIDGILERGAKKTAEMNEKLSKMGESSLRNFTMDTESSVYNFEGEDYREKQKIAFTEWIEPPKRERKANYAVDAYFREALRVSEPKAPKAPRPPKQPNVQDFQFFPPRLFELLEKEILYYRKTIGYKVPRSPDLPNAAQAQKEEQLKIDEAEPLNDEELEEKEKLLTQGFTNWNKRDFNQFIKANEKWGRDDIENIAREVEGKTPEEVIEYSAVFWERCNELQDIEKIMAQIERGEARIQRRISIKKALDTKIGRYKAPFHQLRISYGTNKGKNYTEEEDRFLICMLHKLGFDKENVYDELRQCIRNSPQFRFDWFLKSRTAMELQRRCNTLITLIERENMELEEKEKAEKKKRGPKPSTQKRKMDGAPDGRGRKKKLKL
UniProt P49841: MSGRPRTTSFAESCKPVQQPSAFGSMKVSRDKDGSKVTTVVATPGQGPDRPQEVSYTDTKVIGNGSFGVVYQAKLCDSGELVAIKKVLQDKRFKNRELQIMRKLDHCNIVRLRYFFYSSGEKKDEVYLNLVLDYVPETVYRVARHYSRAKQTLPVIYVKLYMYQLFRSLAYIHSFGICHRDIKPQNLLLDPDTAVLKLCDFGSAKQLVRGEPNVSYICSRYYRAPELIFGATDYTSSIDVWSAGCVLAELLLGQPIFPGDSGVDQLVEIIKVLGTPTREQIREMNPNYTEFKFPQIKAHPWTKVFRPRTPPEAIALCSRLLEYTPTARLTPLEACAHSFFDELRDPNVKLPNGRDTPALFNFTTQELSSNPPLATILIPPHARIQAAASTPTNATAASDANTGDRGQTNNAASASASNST

Tests used:
[1] = target: glycogen synthase kinase (GSK) 3β, endogenous, mouse (mouse (endogenous in MEFs)) (UniProt Q9WV60); assay: co-IP; nuclear lysates of growing GSK3β+/+ MEFs; endogenous GSK3β precipitated with the CGR11 antibody and Protein G Sepharose; beads washed with 1X PBS, 1 mM PMSF, 0.2% NP-40; immunoblots; non-specific rabbit IgGs as control
V5-tagged wild-type NM1 = V5-tagged wild-type NM1 (UniProt Q9WTI7); assay: co-IP; total lysates of HEK293T cells stably expressing V5-tagged NM1 constructs; anti-V5 antibody and Protein G Sepharose; beads washed with 1X PBS, 1 mM PMSF, 0.2% NP-40; endogenous GSK3β detected on immunoblots with CGR11

Molecule: SNF2h, endogenous, mouse (from UniProt Q91ZW3 1-1051)
binding [1]: no binding

B1: WSTF, endogenous, mouse (protein, UniProt Q9Z277 1-1479)
chain: MAPLLGRKPFPLVKPLPGEEPLFTIPHTQEAFRTREEYEARLERYSERIWTCKSTGSSQLTHKEAWEEEQEVAELLKEEFPNWYEKLVLEMVHHNTASLEKLVDSAWLEIMTKYAVGEECDFEVGKEKMLKVKIVKIHPLEKVDEEAVEKKSDGACDSPSSDKENSSQMAQDLQKKETVVKEDEGRRESINDRARRSPRKLPTSLKKGERKWAPPKFLPHKYDVKLQNEDKIISNVPADSLIRTERPPNKEILRYFIRHNALRAGTGENAPWVVEDELVKKYSLPSKFSDFLLDPYKYMTLNPSTKRRNTGSPDRKPSKKPKRDSSSLSSPLNPKLWCHVHLEKSLNGPPLKVKNSKNSKSPEEHLEGVMKIMSPNNNKLHSFHIPKKGPAAKKPGKHSDKPLKAKGRGKGILNGQKSTGNSKSPSKCVKTPKTKMKQMTLLDMAKGTQKMTRTPRSSGGVPRSSGKPHKHLPPAALHLIAYYKENKDKEDKKSALSCVISKTARLLSNEDRARLPEELRALVQKRYELLEHKKRWASMSEEQRKEYLKKKRQELKERLREKAKERREREMLERLEKQKRFEDQELGGRNLPAFRLVDTPEGLPNTLFGDVALVVEFLSCYSGLLLPDAQYPITAVSLMEALSADKGGFLYLNRVLVILLQTLLQDEIAEDYGELGMKLSEIPLTLHSVSELVRLCLRRCDVQEDSEGSETDDNKDSTPFEDNEVQDEFLEKLETSEFFELTSEEKLRILTALCHRILMTYSVQDHMETRQQVSAELWKERLAVLKEENDKKRAEKQKRKEMEARNKENGKEENVLGKVDRKKEIVKIEQQVEVEADDMISAVKSRRLLSMQAKRKREIQERETKVRLEREAEEERMRKHKAAAEKAFQEGIAKAKLVLRRTPIGTDRNHNRYWLFSNEVPGLFIEKGWVHNSIDYRFKHHRKDHSNLPDDDYCPRSKKANLGKNASVNAHHGPALEAVETTVPKQGQNLWFLCDSQKELDELLSCLHPQGIRESQLKERLEKRYQEITHSIYLARKPNLGLKSCDGNQELLNFLRSDLIEVATRLQKGGLGYMEGTSEFEARVISLEKLKDFGECVIALQASVIKKFLQGFMAPKQKKRKLQSEDSTKSEEVDEEKKMVEEAKVASALEKWKTAIREAQTFSRMHVLLGMLDACIKWDMSAENARCKVCRKKGEDDKLILCDECNKAFHLFCLRPALYEVPDGEWQCPACQPPTARRNSRGRNYTEESTSEGSEGDESGEEEEEEEEEEEEEEDYEVAGLRLRPRKTIRGKQSVIPAARPGRPPGKKSHPARRSRPKDDPEVDDLVLQTKRISRRQSLELQKCEDILHKLVKYRFSWPFREPVTRDEAEDYYDVIEHPMDFQTIQNKCSCGNYRSVQEFLTDMKQVFANAELYNCRGSHVLSCMEKTEQCLLALLQKHLPGHPYVRRKRRKFPDRLADDEGDSDSESVGQSRGRRQKK
binding [1]: no binding

Next, values leading:

binding (V5-tagged wild-type NM1): binds
Molecule: glycogen synthase kinase (GSK) 3β, endogenous, human (from UniProt P49841 1-420) (enzyme)

binding [1]: binds
Molecule: nuclear myosin 1c (NM1), endogenous, mouse (from UniProt Q9WTI7-3 1-1044)
